The assay relates to BDF1 mice, colon carcinoma 38 sc, T/C %. In words: NCI In Vivo Anticancer Drug Screen. Data for tumor model Colon Carcinoma 38 (subcutaneous) in B6D2F1 (BDF1) mice. As to conditions: T/C endpoint: median tumor weight (est.), schedule: Q07DX003 (ip), vehicle: saline, evaluation day not shown, higher T/C = larger tumour. On the procedure: The antitumor activity of compounds was measured in mice bearing transplantable tumors. Survival or tumor size were measured and the results are expressed as the measurement made in the treated group (T) divided by the measurement made in the vehicle treated control group (C). The tumor model used in this assay is Colon Carcinoma 38 (subcutaneous) in B6D2F1 (BDF1) mice

The list shows only some results of the screen, not a fair sample: its compounds were picked by chemical class. Not every dose and run of a compound is shown. T/C gives the treated animals as a percentage of the vehicle group. Some T/C values are marked as having no survivor count here; that says nothing about deaths at the dose. Schedules are NCI's codes, read here as Q, the interval in days (D) or hours (H), X, the number of doses.

Consider `CN(CCCl)CCCl`, for which the T/C is 70 % of control [survivor count not shown] (dose: 0.06 mg/kg/injection); 112 % of control [survivor count not shown] (dose: 0.12 mg/kg/injection); 123 % of control [survivor count not shown] (dose: 0.25 mg/kg/injection); 88 % of control [survivor count not shown] (dose: 0.5 mg/kg/injection); 70 % of control [survivor count not shown] (dose: 1.0 mg/kg/injection); 59 % of control [survivor count not shown] (dose: 2.0 mg/kg/injection).

These data come from PubChem BioAssay AID212 (DTP/NCI, 2004).
